The series can be described thus: RRT study: LC-MS/MS urinary proteomics, AKI after cardiac surgery, RRT vs No RRT. Details: species or system human. The following applies: patients who did vs did not require RRT/dialysis; for Up or Down: direction of urinary abundance; for Mean Fold Change: read with the Up or Down column.

B1: Syndecan-1 (protein, UniProt P18827 23-310, looked up)
Syndecan-1: QIVATNLPPEDQDGSGDDSDNFSGSGAGALQDITLSQQTPSTWKDTQLLTAIPTSPEPTGLEATAASTSTLPAGEGPKEGEAVVLPEVEPGLTAREQEATPRPRETTQLPTTHLASTTTATTAQEPATSHPHRDMQPGHHETSTPAGPSQADLHTPHTEDGGPSATERAAEDGASSQLPAAEGSGEQDFTFETSGENTAVVAVEPDRRNQSPVDQGATGASQGLLDRKEVLGGVIAGGLVGLIFAVCLVGFMLYRMKKKDEGSYSLEEPKQANGGAYQKPTKQEEFYA
For B1, the “Up or Down” value is listed as “Up” and the “Mean Fold Change” value turned out to be 2.852.

B2: Nidogen-1 (protein, UniProt P14543 29-1247, looked up)
Nidogen-1: LSRQELFPFGPGQGDLELEDGDDFVSPALELSGALRFYDRSDIDAVYVTTNGIIATSEPPAKESHPGLFPPTFGAVAPFLADLDTTDGLGKVYYREDLSPSITQRAAECVHRGFPEISFQPSSAVVVTWESVAPYQGPSRDPDQKGKRNTFQAVLASSDSSSYAIFLYPEDGLQFHTTFSKKENNQVPAVVAFSQGSVGFLWKSNGAYNIFANDRESVENLAKSSNSGQQGVWVFEIGSPATTNGVVPADVILGTEDGAEYDDEDEDYDLATTRLGLEDVGTTPFSYKALRRGGADTYSVPSVLSPRRAATERPLGPPTERTRSFQLAVETFHQQHPQVIDVDEVEETGVVFSYNTDSRQTCANNRHQCSVHAECRDYATGFCCSCVAGYTGNGRQCVAEGSPQRVNGKVKGRIFVGSSQVPIVFENTDLHSYVVMNHGRSYTAISTIPETVGYSLLPLAPVGGIIGWMFAVEQDGFKNGFSITGGEFTRQAEVTFVGHPGNLVIKQRFSGIDEHGHLTIDTELEGRVPQIPFGSSVHIEPYTELYHYSTSVITSSSTREYTVTEPERDGASPSRIYTYQWRQTITFQECVHDDSRPALPSTQQLSVDSVFVLYNQEEKILRYALSNSIGPVREGSPDALQNPCYIGTHGCDTNAACRPGPRTQFTCECSIGFRGDGRTCYDIDECSEQPSVCGSHTICNNHPGTFRCECVEGYQFSDEGTCVAVVDQRPINYCETGLHNCDIPQRAQCIYTGGSSYTCSCLPGFSGDGQACQDVDECQPSRCHPDAFCYNTPGSFTCQCKPGYQGDGFRCVPGEVEKTRCQHEREHILGAAGATDPQRPIPPGLFVPECDAHGHYAPTQCHGSTGYCWCVDRDGREVEGTRTRPGMTPPCLSTVAPPIHQGPAVPTAVIPLPPGTHLLFAQTGKIERLPLEGNTMRKTEAKAFLHVPAKVIIGLAFDCVDKMVYWTDITEPSIGRASLHGGEPTTIIRQDLGSPEGIAVDHLGRNIFWTDSNLDRIEVAKLDGTQRRVLFETDLVNPRGIVTDSVRGNLYWTDWNRDNPKIETSYMDGTNRRILVQDDLGLPNGLTFDAFSSQLCWVDAGTNRAECLNPSQPSRRKALEGLQYPFAVTSYGKNLYFTDWKMNSVVALDLAISKETDAFQPHKQTRLYGITTALSQCPQGHNYCSVNNGGCTHLCLATPGSRTCRCPDNTLGVDCIEQK
On to B2, for which the “Up or Down” value is reported as “Up” and the “Mean Fold Change” value was found to be 1.307.

B3: Kininogen-1 (protein, UniProt P01042 19-644, looked up)
Kininogen-1: QESQSEEIDCNDKDLFKAVDAALKKYNSQNQSNNQFVLYRITEATKTVGSDTFYSFKYEIKEGDCPVQSGKTWQDCEYKDAAKAATGECTATVGKRSSTKFSVATQTCQITPAEGPVVTAQYDCLGCVHPISTQSPDLEPILRHGIQYFNNNTQHSSLFMLNEVKRAQRQVVAGLNFRITYSIVQTNCSKENFLFLTPDCKSLWNGDTGECTDNAYIDIQLRIASFSQNCDIYPGKDFVQPPTKICVGCPRDIPTNSPELEETLTHTITKLNAENNATFYFKIDNVKKARVQVVAGKKYFIDFVARETTCSKESNEELTESCETKKLGQSLDCNAEVYVVPWEKKIYPTVNCQPLGMISLMKRPPGFSPFRSSRIGEIKEETTVSPPHTSMAPAQDEERDSGKEQGHTRRHDWGHEKQRKHNLGHGHKHERDQGHGHQRGHGLGHGHEQQHGLGHGHKFKLDDDLEHQGGHVLDHGHKHKHGHGHGKHKNKGKKNGKHNGWKTEHLASSSEDSTTPSAQTQEKTEGPTPIPSLAKPGVTVTFSDFQDSDLIATMMPPISPAPIQSDDDWIPDIQIDPNGLSFNPISDFPDTTSPKCPGRPWKSVSEINPTTQMKESYYFDLTDGLS
With B3, the “Up or Down” value was “Up” and the “Mean Fold Change” value stood at 1.18.

B4: Fibulin-5 (protein, UniProt Q9UBX5 24-448, looked up)
Fibulin-5: QAQCTNGFDLDRQSGQCLDIDECRTIPEACRGDMMCVNQNGGYLCIPRTNPVYRGPYSNPYSTPYSGPYPAAAPPLSAPNYPTISRPLICRFGYQMDESNQCVDVDECATDSHQCNPTQICINTEGGYTCSCTDGYWLLEGQCLDIDECRYGYCQQLCANVPGSYSCTCNPGFTLNEDGRSCQDVNECATENPCVQTCVNTYGSFICRCDPGYELEEDGVHCSDMDECSFSEFLCQHECVNQPGTYFCSCPPGYILLDDNRSCQDINECEHRNHTCNLQQTCYNLQGGFKCIDPIRCEEPYLRISDNRCMCPAENPGCRDQPFTILYRDMDVVSGRSVPADIFQMQATTRYPGAYYIFQIKSGNEGREFYMRQTGPISATLVMTRPIKGPREIQLDLEMITVNTVINFRGSSVIRLRIYVSQYPF
Regarding B4, the “Up or Down” value is on record as “Up” and the “Mean Fold Change” value is on record as 1.011.

B5: SPARC-like protein 1 (protein, UniProt Q14515 17-664, looked up)
SPARC-like protein 1: IPTNARLLSDHSKPTAETVAPDNTAIPSLRAEAEENEKETAVSTEDDSHHKAEKSSVLKSKEESHEQSAEQGKSSSQELGLKDQEDSDGHLSVNLEYAPTEGTLDIKEDMSEPQEKKLSENTDFLAPGVSSFTDSNQQESITKREENQEQPRNYSHHQLNRSSKHSQGLRDQGNQEQDPNISNGEEEEEKEPGEVGTHNDNQERKTELPREHANSKQEEDNTQSDDILEESDQPTQVSKMQEDEFDQGNQEQEDNSNAEMEEENASNVNKHIQETEWQSQEGKTGLEAISNHKETEEKTVSEALLMEPTDDGNTTPRNHGVDDDGDDDGDDGGTDGPRHSASDDYFIPSQAFLEAERAQSIAYHLKIEEQREKVHENENIGTTEPGEHQEAKKAENSSNEEETSSEGNMRVHAVDSCMSFQCKRGHICKADQQGKPHCVCQDPVTCPPTKPLDQVCGTDNQTYASSCHLFATKCRLEGTKKGHQLQLDYFGACKSIPTCTDFEVIQFPLRMRDWLKNILMQLYEANSEHAGYLNEKQRNKVKKIYLDEKRLLAGDHPIDLLLRDFKKNYHMYVYPVHWQFSELDQHPMDRVLTHSELAPLRASLVPMEHCITRFFEECDPNKDKHITLKEWGHCFGIKEEDIDENLLF
Regarding B5, the “Up or Down” value was “Up” and the “Mean Fold Change” value is recorded as 3.045.

B6: 6-phosphogluconolactonase (protein, UniProt O95336 2-258, looked up)
6-phosphogluconolactonase: AAPAPGLISVFSSSQELGAALAQLVAQRAACCLAGARARFALGLSGGSLVSMLARELPAAVAPAGPASLARWTLGFCDERLVPFDHAESTYGLYRTHLLSRLPIPESQVITINPELPVEEAAEDYAKKLRQAFQGDSIPVFDLLILGVGPDGHTCSLFPDHPLLQEREKIVAPISDSPKPPPQRVTLTLPVLNAARTVIFVATGEGKAAVLKRILEDQEENPLPAALVQPHTGKLCWFLDEAAARLLTVPFEKHSTL
In the case of B6, the “Up or Down” value is on record as “Up” and the “Mean Fold Change” value was determined as 2.382.

B7: Lithostathine-1-beta (protein, UniProt P48304 23-166, looked up)
Lithostathine-1-beta: QESQTELPNPRISCPEGTNAYRSYCYYFNEDPETWVDADLYCQNMNSGNLVSVLTQAEGAFVASLIKESSTDDSNVWIGLHDPKKNRRWHWSSGSLVSYKSWDTGSPSSANAGYCASLTSCSGFKKWKDESCEKKFSFVCKFKN
Consider B7, for which the “Up or Down” value is listed as “Up” and the “Mean Fold Change” value came out at 1.247.

B8: Cystatin-B (protein, UniProt P04080 1-98, looked up)
Cystatin-B: MMCGAPSATQPATAETQHIADQVRSQLEEKENKKFPVFKAVSFKSQVVAGTNYFIKVHVGDEDFVHLRVFQSLPHENKPLTLSNYQTNKAKHDELTYF
Regarding B8, the “Up or Down” value was “Up” and the “Mean Fold Change” value is 58.14.

For the origin of these results see patent publication US20140038203A1, “METHODS FOR DETECTING OR PREDICTING KIDNEY DISEASE” (MUSC FOUNDATION FOR RESEARCH DEVELOPMENT, priority 2012, published 2014).
